Laboratory results taken from paper PMC12614781, “The VelB IDD promotes selective heterodimer formation of velvet proteins for fungal development” (Life Science Alliance, 2025).
These are yes or no findings as the source states them, for the method shown. In cells and extracts the contact can be indirect. Binding can be weak; no strength is given. Tags and fused reporters may be left off the sequences shown.

Protein sequences, listed by entry. Tags and fused reporters are not part of them. Lines headed by an entry give the natural chain unless they say otherwise; changes in a name come on top.
UniProt C8VTS4: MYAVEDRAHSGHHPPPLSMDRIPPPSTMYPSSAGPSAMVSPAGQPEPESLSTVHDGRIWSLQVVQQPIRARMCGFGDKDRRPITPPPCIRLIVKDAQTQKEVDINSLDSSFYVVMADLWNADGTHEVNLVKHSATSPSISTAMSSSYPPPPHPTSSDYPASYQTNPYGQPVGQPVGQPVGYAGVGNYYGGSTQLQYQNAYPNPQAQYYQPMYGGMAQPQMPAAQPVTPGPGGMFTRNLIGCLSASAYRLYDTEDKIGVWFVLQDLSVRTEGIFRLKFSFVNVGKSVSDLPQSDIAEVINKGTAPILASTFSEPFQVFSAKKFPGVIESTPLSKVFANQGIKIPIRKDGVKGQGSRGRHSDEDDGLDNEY

T1: VeA-HA (A. nidulans VeA with HA tag) (A. nidulans) (UniProt C8VTV4)
T1 sequence: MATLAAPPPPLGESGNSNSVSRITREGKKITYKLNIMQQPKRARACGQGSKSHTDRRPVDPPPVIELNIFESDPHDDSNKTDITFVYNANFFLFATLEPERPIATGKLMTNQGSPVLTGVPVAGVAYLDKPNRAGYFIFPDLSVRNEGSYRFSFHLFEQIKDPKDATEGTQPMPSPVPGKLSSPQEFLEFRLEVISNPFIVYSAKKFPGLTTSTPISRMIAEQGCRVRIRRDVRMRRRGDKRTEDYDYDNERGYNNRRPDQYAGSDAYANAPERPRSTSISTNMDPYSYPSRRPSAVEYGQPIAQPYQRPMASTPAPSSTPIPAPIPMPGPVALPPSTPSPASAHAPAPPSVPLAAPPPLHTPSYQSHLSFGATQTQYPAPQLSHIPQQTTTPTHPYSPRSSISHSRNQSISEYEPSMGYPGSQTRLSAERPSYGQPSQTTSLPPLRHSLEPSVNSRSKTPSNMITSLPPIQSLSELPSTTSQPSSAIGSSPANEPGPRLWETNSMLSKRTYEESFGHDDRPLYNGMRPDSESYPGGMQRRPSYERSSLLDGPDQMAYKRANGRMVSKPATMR


Assays:
[1] = target: T1, VeA-HA (A. nidulans VeA with HA tag) (A. nidulans); test: co-IP; GFP and HA (anti-HA agarose) pull-downs from vegetative mycelium of A. nidulans strains expressing veA:HA or vosA:HA and velB:gfp or velB^ΔIDD:gfp under native promoters, intact veA; Western with GFP and HA antibodies
[2] = target: VelB^ΔIDD-GFP (A. nidulans VelB lacking the intrinsically disordered domain, fused to GFP) (A. nidulans) (UniProt C8VTS4); test: as above

binding [1] | binding [2] | Molecule
binds |  | VelB^ΔIDD-GFP (A. nidulans VelB lacking the intrinsically disordered domain, fused to GFP) (from UniProt C8VTS4)
 | binds | VeA-HA (A. nidulans VeA with HA tag) (protein, UniProt C8VTV4 1-573) MATLAAPPPPLGESGNSNSVSRITREGKKITYKLNIMQQPKRARACGQGSKSHTDRRPVDPPPVIELNIFESDPHDDSNKTDITFVYNANFFLFATLEPERPIATGKLMTNQGSPVLTGVPVAGVAYLDKPNRAGYFIFPDLSVRNEGSYRFSFHLFEQIKDPKDATEGTQPMPSPVPGKLSSPQEFLEFRLEVISNPFIVYSAKKFPGLTTSTPISRMIAEQGCRVRIRRDVRMRRRGDKRTEDYDYDNERGYNNRRPDQYAGSDAYANAPERPRSTSISTNMDPYSYPSRRPSAVEYGQPIAQPYQRPMASTPAPSSTPIPAPIPMPGPVALPPSTPSPASAHAPAPPSVPLAAPPPLHTPSYQSHLSFGATQTQYPAPQLSHIPQQTTTPTHPYSPRSSISHSRNQSISEYEPSMGYPGSQTRLSAERPSYGQPSQTTSLPPLRHSLEPSVNSRSKTPSNMITSLPPIQSLSELPSTTSQPSSAIGSSPANEPGPRLWETNSMLSKRTYEESFGHDDRPLYNGMRPDSESYPGGMQRRPSYERSSLLDGPDQMAYKRANGRMVSKPATMR
